Binding screen against folded nucleic acids

Targets, with sequences 5′ to 3′:
T1: TPP riboswitch RNA three-way junction, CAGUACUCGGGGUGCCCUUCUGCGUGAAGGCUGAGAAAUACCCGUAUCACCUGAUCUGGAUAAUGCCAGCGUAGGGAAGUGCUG. About 24,000 compounds screened, about 160 hits.
T2: PreQ1 riboswitch RNA pseudoknot, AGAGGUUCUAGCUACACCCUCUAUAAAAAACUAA. From B. subtilis. About 24,000 compounds screened, about 170 hits.
T3: SAM-II riboswitch RNA pseudoknot, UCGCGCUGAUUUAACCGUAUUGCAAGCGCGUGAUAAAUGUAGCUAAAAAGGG. About 21,000 compounds screened, about 200 hits.

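Compounds were printed on reactive glass slides in duplicate spots, a dye-labelled oligonucleotide was laid over them, and the fluorescence left after washing was read. The data file lists only calls. An earlier report of the laboratory on the PreQ1, TPP and SAM-II riboswitches (doi:10.1038/s41467-019-09493-3) used 1 µM RNA for 2 h and required a mean Z-score above 3 (spot signal-to-noise against the whole library), a score well above that on a control array, and duplicate spots agreeing (coefficient of variation under 100); it then also set aside compounds that hit other targets, which this list keeps. The cut-offs behind this list may differ. These are primary screening calls, not affinities; a compound without a hit may have attached poorly or may still bind in solution.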
A compound is marked 1 if it was called a hit and 0 if it was screened but was not.
This is an unselected part of the compounds tested.
A target missing from an entry has no call listed here.
A dash means that no call is listed here.

structure,T1,T2,T3
CC(C)CN(CCO)C(=O)C1CCCN(C2CCN(Cc3ccncc3)CC2)C1 (configuration not stated),0,0,0
N[C@@H]1CC[C@@H](NC(=O)COc2cccnc2)C1,0,0,0
Nc1nnc(CCn2cc(-c3ccc(CO)o3)nn2)s1,0,0,0
CC1COc2c(N3CCN(C)CC3)c(F)cc3c(=O)c(C(=O)O)cn1c23 (configuration not stated),0,0,0
Nc1nnc(SCC(=O)N2CCCC(CCC(=O)N3CCOCC3)C2)s1 (configuration not stated),0,0,0
CCc1nc2c(N3CCC(NCc4cc(C(C)(C)C)n[nH]4)CC3)ncnc2o1,0,0,0
OC(CN1CCN(c2cccc(Cl)c2)CC1)C(c1ccccc1)c1ccccc1 (configuration not stated),0,0,0
COc1ccc(C2C3=C(COC3=O)Oc3cc4c(cc32)OCO4)cc1OC (configuration not stated),0,0,0
Oc1cc(CNCCCNc2cccnc2)nc2c(F)cccc12,0,0,0
CC1CCCC(C)N1S(=O)(=O)c1ccc(NC2=NS(=O)(=O)c3ccccc32)cc1 (configuration not stated),0,0,0
COC(=O)c1snc(-c2ccc(F)cc2)c1N,0,0,0
N[C@@H]1CC[C@@H](NC(=O)c2cc(=O)n(-c3ccccc3)[nH]2)C1,0,0,0
CCC[C@H]1CN(Cc2nc(C(F)(F)F)no2)C[C@@H]1NC(=O)CO,0,0,0
CN(Cc1cnc(N)nc1)c1cc(-c2ccccc2)nc2ccnn12,0,0,0
NCCCC(=O)N1c2ccccc2Sc2ccc(Cl)cc21,0,0,0
Cc1cccc(CNc2nc3nc(C)cc(C)n3n2)c1,0,0,-
Cn1c(=O)c2c(nc3n2CC(c2ccc(F)cc2)=NN3CCO)n(C)c1=O,0,0,0
CCOC(=O)c1cnc2c(C)cc(C)cc2c1Nc1ccc(N(C)C)cc1,0,0,0
COc1nc(NS(=O)(=O)c2ccc(N)cc2)nc(N(C)C)n1,0,0,0
CC1(C)CC(NC(=S)NCCc2ccccc2)CC(C)(C)N1,0,0,0
COCc1cc(C)nc2sc(C(=O)Nc3cccc(C)c3)c(N)c12,0,0,0
COC(=O)c1n[nH]cc1-c1c(C#N)c(N)nc2c1Cc1ccccc1-2,0,0,0
Nc1ccc(-n2ccnc2)c(Cl)c1,0,0,0
CCn1c(NCCO)nc2c1c(=O)n(C)c(=O)n2C,0,0,0
COc1ccc(OCCN[C@H]2CS(=O)(=O)C[C@@H]2S(=O)(=O)c2ccccc2)cc1,0,0,-
Cc1[nH]c2c(C)ccc(F)c2c1CCN,0,0,0
CC(=O)N1C(=O)C2(C(C#N)=C(N)Oc3[nH]nc(-c4ccc(F)cc4)c32)c2ccccc21 (configuration not stated),0,0,0
COc1cc(CNC2CCCC2)ccc1OCc1ccc2c(c1)n(C)c(=O)n2C,0,0,-
Cl.Cl.Fc1ccc(C(OCCN2CCN(CCCc3ccccc3)CC2)c2ccc(F)cc2)cc1,0,0,0
CC(NC(C)(C)C)C(=O)c1cccc(Cl)c1 (configuration not stated),0,0,0
CN(C)C(=O)c1ccc2c(c1)N(C)C(CC(=O)NCCO)CO2 (configuration not stated),0,0,0
c1ccc(-c2nc(Cn3ccnc3-c3cc4n(n3)CCCNC4)cs2)cc1,0,0,0
CCN(Cc1c(F)cccc1Cl)c1cc(C2CCNCC2)nc(C)n1,0,0,0
CCc1oc2ccccc2c1C(=O)c1cc(Br)c(O)c(Br)c1,0,0,0
Brc1ccc(NCc2cccc3ccccc23)nc1,0,0,0
CCOC(=O)c1ccc(NC2c3ccccc3C(=O)N2Cc2ccccc2Cl)cc1 (configuration not stated),0,0,0
COc1ccccc1CNC(=O)c1nn(-c2ccccc2F)nc1CO,0,0,-
CN(CCCNC(=O)CC1CCNC1)c1ccccc1 (configuration not stated),0,0,0
CN(C)C[C@@H]1CN(C(=O)CCCn2cncn2)C[C@@H]1CO,0,0,0
O=C(NCCO)c1c(O)nc2ccccn2c1=O,0,0,0
Cc1cc(CN2CCC3(CCN(Cc4nc(C)c[nH]4)CC3)C(CO)C2)on1 (configuration not stated),0,0,0
Cn1c(C(=O)O)c(CNCc2cccc(Cl)c2)c2ccccc21,0,0,-
NC(=O)c1cccc(NC(=O)N2CCN(Cc3ccco3)C(CCO)C2)c1 (configuration not stated),0,0,0
OCC#CCSc1nnc(-c2ccc(Cl)cc2Cl)o1,0,0,0
COC(=O)C1=C(C(=O)OC)N(c2ccccc2)C(=C2C(=S)C(C)(C)Nc3ccccc32)S1,0,0,0
Nc1c2c(nc3sc4c(c13)CCCC4)CCCC2,0,0,0
Nc1cccc(NC(=O)COc2ccccc2)c1,0,0,0
CNc1ncc(CN(C)C(=O)c2cn(CC3CCCNC3)nn2)cn1 (configuration not stated),0,0,0
COc1ccccc1N1CC(NC(=O)c2cn(CCN)nn2)CC1=O (configuration not stated),0,0,0
CC1(C)Cc2c(sc3nc(SCc4ccccc4Cl)nc(N)c23)CO1,0,0,0
CCn1ncc(C(=O)N(Cc2ccncc2)CC(O)c2ccccc2)c1C (configuration not stated),0,0,0
CCn1cncc1Cn1nc(C2CCCNC2)n(-c2ccccc2)c1=O (configuration not stated),0,0,0
N[C@H]1CN(C(=O)CN2CCCCCCC2)C[C@@H]1c1ccccc1,0,0,0
Cc1cc2cccc(-n3ccnc3-c3cn(C4CCNCC4)nn3)c2o1,0,0,0
N#CNC(=N)c1ccccc1,0,0,0
COc1ccc(-c2nc3nc(C)cc(Nc4ccc(N(C)C)cc4)n3n2)cc1,0,0,-
CCc1ccc(Nc2nc(-c3ccncc3)cs2)cc1,0,0,0
O[C@H]1CN[C@H](c2nc(C3(c4ccccc4)CC3)nn2-c2ccc(F)cc2)C1,0,0,0
CC(C)c1ccccc1Cc1cc(C(=O)Nc2ccc(S(=O)(=O)c3ccccc3C(C)(C)C)cc2)c(O)c(O)c1O,0,0,0
CC(C)(O)[C@H]1CC[C@@](C)([C@H]2[C@@H](O)C[C@@]3(C)[C@@H]4C[C@H](O[C@@H]5O[C@H](CO)[C@@H](O)[C@H](O)[C@@H]5O)[C@H]5C(C)(C)[C@@H](O[C@@H]6OC[C@@H](O)[C@H](O)[C@@H]6O)CC[C@@]56C[C@@]46CC[C@]23C)O1,0,0,0
Clc1ccc2nc3ccccc3cc2c1,0,0,0
Cc1cc(Nc2ccc(F)cc2Cl)n2nc(C)nc2n1,0,0,0
O=C1C=C(NCc2ccc(Cl)c(Cl)c2)C2(CCCCC2)O1,0,0,0
N#Cc1cc2c(nc1SCC(O)CNc1ccc(Cl)cc1)CCCC2 (configuration not stated),0,0,0
O=C1c2cccc3cc([N+](=O)[O-])cc(c23)C(=O)N1CCO,0,0,0
Cc1ccc(C)c(NC2CCCCC2NS(=O)(=O)c2ccc(Cl)cc2)c1 (configuration not stated),0,0,-
Clc1cccc(CNCCc2ccc3c(c2)OCO3)c1,0,0,0
O=C(NCCCO)c1ccc2[nH]c3c(c2c1)CCCC3,0,0,0
CCCCCNC(=O)c1nn(-c2ccc(F)cc2)nc1CO,0,0,-
Cc1sc2ncnc(NCc3ccc4c(c3)OCO4)c2c1C,0,0,-
Cc1cnc(CNCc2cc(O)c3cc(F)ccc3n2)cn1,0,0,0
CN(C)c1nc(N)nc(COc2cccc3c2OC(C)(C)C3)n1,0,0,0
Cc1ccn2c(Nc3ccccc3)c(-c3ccc(C)o3)nc2c1,0,0,0
COc1ccc2[nH]cc(CCNCc3ccco3)c2c1,0,0,0
CCc1nc2c(N3C[C@H]4COc5ccccc5C[C@@]4(CO)C3)ncnc2o1,0,0,0

For reference, 8 entries once more:

{"structure": "Cn1c(C(=O)O)c(CNCc2cccc(Cl)c2)c2ccccc21", "T1": "0", "T2": "0"}
{"structure": "Cc1cnc(CNCc2cc(O)c3cc(F)ccc3n2)cn1", "T1": "0", "T2": "0", "T3": "0"}
{"structure": "O=C1c2cccc3cc([N+](=O)[O-])cc(c23)C(=O)N1CCO", "T1": "0", "T2": "0", "T3": "0"}
{"structure": "Cc1cc(Nc2ccc(F)cc2Cl)n2nc(C)nc2n1", "T1": "0", "T2": "0", "T3": "0"}
{"structure": "Nc1c2c(nc3sc4c(c13)CCCC4)CCCC2", "T1": "0", "T2": "0", "T3": "0"}
{"structure": "COc1ccc2[nH]cc(CCNCc3ccco3)c2c1", "T1": "0", "T2": "0", "T3": "0"}
{"structure": "O=C1C=C(NCc2ccc(Cl)c(Cl)c2)C2(CCCCC2)O1", "T1": "0", "T2": "0", "T3": "0"}
{"structure": "O=C(NCCO)c1c(O)nc2ccccn2c1=O", "T1": "0", "T2": "0", "T3": "0"}

Source: the ROBIN nucleic acid binder screens (doi:10.1002/anie.202211358).